Measured values: article PMC5249250
Results are given in words; binding and its absence hold for the method and conditions named. In cells and extracts the contact can be indirect. Binding can be weak; no strength is given. For part of these data: Tags and fused reporters may be left off the sequences shown.

Tests used:
HA-PUB17 = test: co-IP; tagged proteins co-expressed by agroinfiltration in leaves; extract after 3 days incubated with epitope antibody agarose conjugates (anti-GFP or anti-HA) 3-4 hours at 4°C; blots with anti-HA and anti-GFP; MG132 treatment for POB1 with HA-PUB17 (Fig 7E)
YC-PUB17 = test: split reporter; BiFC with split YFP (YN, YC) co-expressed in N. benthamiana leaves, MG132 (100 μM) infiltrated 5 hours before confocal imaging

| binding (HA-PUB17) | binding (YC-PUB17) | Binder |
| --- | --- | --- |
| binds |  | POB1 expressed in planta (HA-POB1 and GFP-POB1) (protein, UniProt Q9FPW6 1-561) MRGTTENTDLFDPKTQMDPDFTRHGSSSDGDFGFAFNDSNFSDRLLRIEIMGGPSDSRSEVEGCTSIADWARHRKRRREDIKKESGVTISDIVACPEEQILTDEQPDMDGCPGGENPDDEGGEAMVEEALSGDEEETSSEPNWGMDCSTVVRVKELHISSPILAAKSPFFYKLFSNGMRESEQRHVTLRINASEEAALMELLNFMYSNAVSVTTAPALLDVLMAADKFEVASCMRYCSRLLRNMPMTPESALLYLELPSSVLMAKAVQPLTDAAKQFLAARYKDITKFHEEVMSLPLAGIEAILSSDELQIASEDAVYDFILKWARAQYPCLEERREILGSRLALSIRFPFMTCRKLKKVLTCSDFEHEIASKLVLEALFFKAEAPHRQRSLASEESASLNRRLIERAYKYRPVKVVEFELPRPQCVVYLDLKREECGGLFPSGRVYSQAFHLGGQGFFLSAHCNMDQQSSFHCFGLFLGMQEKGSVSFGVDYEFSARSKPAEDFISKYKGNYTFTGGKAVGYRNLFGVPWTSFIAEDSQYFINGILHLRAELTIKRSTDP |
|  | binds | YN-POB1 (protein, UniProt Q9FPW6 1-561) MRGTTENTDLFDPKTQMDPDFTRHGSSSDGDFGFAFNDSNFSDRLLRIEIMGGPSDSRSEVEGCTSIADWARHRKRRREDIKKESGVTISDIVACPEEQILTDEQPDMDGCPGGENPDDEGGEAMVEEALSGDEEETSSEPNWGMDCSTVVRVKELHISSPILAAKSPFFYKLFSNGMRESEQRHVTLRINASEEAALMELLNFMYSNAVSVTTAPALLDVLMAADKFEVASCMRYCSRLLRNMPMTPESALLYLELPSSVLMAKAVQPLTDAAKQFLAARYKDITKFHEEVMSLPLAGIEAILSSDELQIASEDAVYDFILKWARAQYPCLEERREILGSRLALSIRFPFMTCRKLKKVLTCSDFEHEIASKLVLEALFFKAEAPHRQRSLASEESASLNRRLIERAYKYRPVKVVEFELPRPQCVVYLDLKREECGGLFPSGRVYSQAFHLGGQGFFLSAHCNMDQQSSFHCFGLFLGMQEKGSVSFGVDYEFSARSKPAEDFISKYKGNYTFTGGKAVGYRNLFGVPWTSFIAEDSQYFINGILHLRAELTIKRSTDP |
| binds weakly |  | POB1^D146A expressed in planta (HA-POB1^D146A and GFP-POB1^D146A) (protein, UniProt Q9FPW6 1-561) MRGTTENTDLFDPKTQMDPDFTRHGSSSDGDFGFAFNDSNFSDRLLRIEIMGGPSDSRSEVEGCTSIADWARHRKRRREDIKKESGVTISDIVACPEEQILTDEQPDMDGCPGGENPDDEGGEAMVEEALSGDEEETSSEPNWGMACSTVVRVKELHISSPILAAKSPFFYKLFSNGMRESEQRHVTLRINASEEAALMELLNFMYSNAVSVTTAPALLDVLMAADKFEVASCMRYCSRLLRNMPMTPESALLYLELPSSVLMAKAVQPLTDAAKQFLAARYKDITKFHEEVMSLPLAGIEAILSSDELQIASEDAVYDFILKWARAQYPCLEERREILGSRLALSIRFPFMTCRKLKKVLTCSDFEHEIASKLVLEALFFKAEAPHRQRSLASEESASLNRRLIERAYKYRPVKVVEFELPRPQCVVYLDLKREECGGLFPSGRVYSQAFHLGGQGFFLSAHCNMDQQSSFHCFGLFLGMQEKGSVSFGVDYEFSARSKPAEDFISKYKGNYTFTGGKAVGYRNLFGVPWTSFIAEDSQYFINGILHLRAELTIKRSTDP |
